According to PubChem BioAssay AID2685 (National Center for Advancing Translational Sciences (NCATS), 2010):
This is one part of the list. Further columns of the screen follow, without active or inactive calls. Compounds called inactive in the main read-out are mostly missing here. Potencies come from curve fits of mixed quality, noted in brackets.

Assay: qHTS Assay for Lipid Storage Modulators in Drosophila S3 Cells;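 for cell number change: cells counted by Cell Tracker Red CMTPX staining in the red channel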
Settings: BODIPY lipid droplet fluorescence, 18-24 h; for cell number change: measured here: cell count max response, cells fed with added oleic acid
Method in brief: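 Drosophila S3 cells got compounds at several concentrations plus oleic acid (400 uM solution). Laser-scanning cytometry with 488 nm excitation read lipid droplets at 500-530 nm and cells at 575-640 nm. Percent activity was relative to 20 uM Triacsin C.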

[1] = measured here: lipid fluorescence (Fed channel) AC50, cells fed with added oleic acid
[2] = measured here: cell number channel AC50, cells fed with added oleic acid

Row | SMILES | cell number change [%] | AC50 [1] | AC50 [2]
1 | COCCNC(=O)C1CCCN(S(=O)(=O)c2ccc3c(c2)CC(C)N3C(=O)C2CC2)C1 (stereo unspecified) | 20.7 | 6.51 µM [rising, single point] | 
2 | Cc1cc2oc(=O)cc(CN3CCCCC3C)c2c(C)c1Cl (stereo unspecified) | 9.25 |  | 
3 | CCOC(=O)/C(=C/c1ccc(OC(=O)c2ccccc2)cc1)C(C)=O |  | 0.366 µM [rising, full curve] | 0.651 µM [rising, full curve, poor fit]
4 | CCn1nc(C)c(CNC(=O)c2cc(COc3ccc(F)cc3Cl)on2)c1C | -28.7 | 4.61 µM [falling, full curve] | 
5 | CCN(CC(=O)Nc1ccc(NC(C)=O)cc1)C(=O)/C=C/c1ccc([N+](=O)[O-])cc1 | 3.09 |  | 0.231 µM [falling, partial curve, poor fit]
6 | O=[N+]([O-])c1ccc(N2CCc3ccccc3C2)cc1 | 29 | 0.116 µM [rising, partial curve, poor fit] | 
7 | COC(=O)c1cc(C)sc1NC(=O)CCCC(=O)O | 1.82 | 1.03 µM [rising, full curve, poor fit] | 
8 | COc1ccccc1N(C)S(=O)(=O)c1ccc(C(=O)NNC(=O)c2ccccc2O)cc1 | -42.5 |  | 8.2 µM [falling, partial curve, poor fit]
9 | COc1ccc(S(=O)(=O)N(C)CC(=O)Nc2ccc3c(c2)OCCO3)cc1OC | -9.33 | 1.3 µM [rising, partial curve] | 
10 | COc1ccc(S(=O)(=O)N2CCCC2CNC(=O)C(=O)NC2CCCCCC2)cc1 (stereo unspecified) | 49.2 |  | 9.2 µM [rising, partial curve, poor fit]
11 | CCOc1cccc(OCCCNCCCOC)c1 | -2.45 |  | 
12 | O=[n+]1cc(-c2cc3ccccc3o2)n([O-])c2c1CCCC2 | -19.9 | 4.61 µM [falling, full curve, poor fit] | 0.82 µM [falling, full curve, poor fit]
13 | O=C(NCCCN1CCCCC1)C1CCC(=O)N1CCc1ccccc1 (stereo unspecified) | -3.16 | 0.651 µM [rising, single point] | 
14 | COc1cc(C(=O)NNC(=O)COc2ccc(C)cc2)ccc1OCC(=O)N1CCOCC1 | 7.65 | 6.51 µM [falling, single point] | 
15 | O=C(c1cc(-c2cccs2)nn1-c1ccccc1)N1CCN(S(=O)(=O)c2ccccc2)CC1 |  |  | 2.59 µM [rising, single point]
16 | O=C(CSc1n[nH]c(-c2cccs2)n1)N1CCCCC1 |  | 0.0206 µM [falling, full curve, poor fit] | 
17 | Cn1c(CN2CCOCC2)nnc1SCC(=O)Nc1nccs1 | 22.9 |  | 
18 | O=C(NCCCN=C1NS(=O)(=O)c2ccccc21)c1ccc(F)cc1 | -37.1 | 11.6 µM [falling, single point] | 13 µM [falling, partial curve, poor fit]
19 | CCOC(=O)Cc1csc(NC(=O)CCNS(=O)(=O)c2ccc3c(c2)CCC(=O)N3)n1 | -34.9 |  | 29.1 µM [falling, single point]
20 | COc1ccccc1N(CC(=O)NC1CCCC1)C(=O)C1(C)CC(=O)N=C2C=CC(C)=CN21 (stereo unspecified) | -11.1 | 0.58 µM [rising, single point] | 
21 | Cn1c(-c2cccs2)[n+](C)c2ccccc21 | 25.2 | 2.59 µM [rising, partial curve, poor fit] | 0.461 µM [rising, full curve, poor fit]
22 | Cc1ccc(N(C)C(=O)CC(C)S(=O)(=O)c2ccc3c(c2)NC(=O)CO3)cc1 (stereo unspecified) | 11.6 |  | 1.46 µM [rising, full curve, poor fit]
23 | Cc1[nH]c2ccccc2c1C(=O)COC(=O)c1c(-c2ccccc2)noc1C | -50 |  | 5.8 µM [rising, single point]
24 | Cn1c(SCC(=O)Nc2ccc3c(c2)n(C)c(=O)n3C)nnc1-c1ccncc1 | -11.5 | 10.3 µM [rising, partial curve] | 
25 | O=C(N/N=C/C=C\c1ccccc1[N+](=O)[O-])c1cccnc1 |  | 1.3 µM [rising, full curve] | 0.731 µM [rising, single point]
26 | O=C(CSc1ccccc1C(=O)NCc1ccccc1)NC12CC3CC(CC(C3)C1)C2 | -33.6 | 14.6 µM [falling, partial curve] | 16.4 µM [falling, single point]
27 | COc1cc(-c2nnc(COc3ccc4cc(Br)ccc4c3)o2)cc(OC)c1OC | -2.43 | 23.1 µM [rising, single point] | 
28 | COC(=O)c1cc(S(=O)(=O)NCC(C)c2ccccc2)cn1C (stereo unspecified) | -15.3 |  | 
29 | COc1ccccc1NC1=C(Cl)C(=O)N(c2ccccc2)C1=O | -0.797 | 16.4 µM [falling, partial curve, poor fit] | 

Some of these compounds in order of SMILES length, ascending.
Row | SMILES | cell number change [%] | AC50 [1] | AC50 [2]
11 | CCOc1cccc(OCCCNCCCOC)c1 | -2.45 |  | 
4 | CCn1nc(C)c(CNC(=O)c2cc(COc3ccc(F)cc3Cl)on2)c1C | -28.7 | 4.61 µM [falling, full curve] | 
10 | COc1ccc(S(=O)(=O)N2CCCC2CNC(=O)C(=O)NC2CCCCCC2)cc1 (stereo unspecified) | 49.2 |  | 9.2 µM [rising, partial curve, poor fit]
14 | COc1cc(C(=O)NNC(=O)COc2ccc(C)cc2)ccc1OCC(=O)N1CCOCC1 | 7.65 | 6.51 µM [falling, single point] | 
8 | COc1ccccc1N(C)S(=O)(=O)c1ccc(C(=O)NNC(=O)c2ccccc2O)cc1 | -42.5 |  | 8.2 µM [falling, partial curve, poor fit]
1 | COCCNC(=O)C1CCCN(S(=O)(=O)c2ccc3c(c2)CC(C)N3C(=O)C2CC2)C1 (stereo unspecified) | 20.7 | 6.51 µM [rising, single point] | 
